# In patent US20240308988A1, “Method For Controlling Diamide Resistant Pests and Compounds Therefor” (priority 2021, published 2024):
# Some entries share one result that the patent states for a list of compounds.
# System: Plutella xylostella (Diamond back moth) ryanodine receptor, containing the G4946E resistance mutation
# Assay: In vitro calcium fluorescence assay (Fluo-8 NW, FDSS) in human embryonic kidney cells expressing the ryanodine receptor
# Type: cell-based
# Conditions: G4946E RyR in HEK cells; normalised to cyantraniliprole
# Protocol: Human embryonic kidney cells expressing the Plutella xylostella (Diamond back moth) ryanodine receptor, containing the G4946E resistance mutation, are loaded with Fluo-8 No Wash (NW) calcium-sensitive dye which responds by fluorescence to a change in intracellular calcium (e.g. stimulated by activation of ryanodine receptor). Test compounds are added in 10 rates to a 384-well plate containing dye-loaded cells and the fluorescent signal is measured using the Hamamatsu FDSS (Functional Drug Screening system). Dose-response curves are plotted to estimate the EC50. EC50 are normalized against an in-assay reference standard (cyantraniliprole) to address inter-assay variability. The ratio for a given compound is then obtained by the following formula:
# REC50=EC50 (compound)/EC50 (cyantraniliprole).
row,Structure (SMILES),ratio REC50 = EC50 (compound)/EC50 (cyantraniliprole)
1,"COc1cccc(-c2nnn(Cc3cc(C(=O)Nc4c(C)cc(Cl)cc4C(N)=O)n(-c4ncccc4Cl)n3)n2)c1 [Compound P85, N-(2-carbamoyl-4-chloro-6-methyl-phenyl)-2-(3-chloro-2-pyridyl)-5-[[5-(3-methoxyphenyl)tetrazol-2-yl]methyl] pyrazole-3-carboxamide]",≤ 1
2,"Cc1cc(Cl)cc(C(N)=O)c1NC(=O)c1cc(Cn2nnc(-c3ccnc(Cl)c3)n2)nn1-c1ncccc1Cl [Compound P87, N-(2-carbamoyl-4-chloro-6-methyl-phenyl)-2-(3-chloro-2-pyridyl)-5-[[5-(2-chloro-4-pyridyl)tetrazol-2-yl]methyl]pyrazole-3-carboxamide]",≤ 1
3,"Cc1cc(Cl)cc(C(N)=O)c1NC(=O)c1cc(C2CC2)nn1-c1ncccc1Cl [Compound P76, N-(2-carbamoyl-4-chloro-6-methyl-phenyl)-2-(3-chloro-2-pyridyl)-5-cyclopropyl-pyrazole-3-carboxamide]",≤ 1
4,"NC(=O)c1cc(Br)cc(F)c1NC(=O)c1cc(C(F)(F)F)nn1-c1ncccc1Cl [Compound P42, N-(4-bromo-2-carbamoyl-6-fluoro-phenyl)-2-(3-chloro-2-pyridyl)-5-(trifluoromethyl)pyrazole-3-carboxamide]",≤ 1
5,"Cc1cc(Br)cc(C(N)=O)c1NC(=O)c1cc(Cn2ncc(C(F)(F)F)n2)nn1-c1ncccc1Cl [Compound P38, N-(4-bromo-2-carbamoyl-6-methyl-phenyl)-2-(3-chloro-2-pyridyl)-5-[[4-(trifluoromethyl)triazol-2-yl]methyl]pyrazole-3-carboxamide]",≤ 1
6,"Cc1cc(Cl)cc(C(N)=O)c1NC(=O)c1cc(Cn2nnc(-c3ccc(F)cc3)n2)nn1-c1ncccc1Cl [Compound P84, N-(2-carbamoyl-4-chloro-6-methyl-phenyl)-2-(3-chloro-2-pyridyl)-5-[[5-(4-fluorophenyl)tetrazol-2-yl]methyl] pyrazole-3-carboxamide]",≤ 1
7,"Cc1cc(Br)cc(C(N)=O)c1NC(=O)c1cc(I)nn1-c1ncccc1Cl [Compound P39, N-(4-bromo-2-carbamoyl-6-methyl-phenyl)-2-(3-chloro-2-pyridyl)-5-iodo-pyrazole-3-carboxamide]",≤ 1
8,"COc1cc(C(=O)Nc2c(C)cc(Cl)cc2C(N)=O)n(-c2ncccc2Cl)n1 [Compound P9, N-(2-carbamoyl-4-chloro-6-methyl-phenyl)-2-(3-chloro-2-pyridyl)-5-methoxy-pyrazole-3-carboxamide]",≤ 1
9,"Cc1cc(Cl)cc(C(N)=O)c1NC(=O)c1cc(Cn2nnc(-c3ccc(Br)cc3F)n2)nn1-c1ncccc1Cl [Compound P86, 5-[[5-(4-bromo-2-fluoro-phenyl)tetrazol-2-yl]methyl]-N-(2-carbamoyl-4-chloro-6-methyl-phenyl)-2-(3-chloro-2-pyridyl)pyrazole-3-carboxamide]",≤ 1
10,"NC(=O)c1cc(I)cc(F)c1NC(=O)c1cc(Br)nn1-c1ncccc1Cl [Compound P65, 5-bromo-N-(2-carbamoyl-6-fluoro-4-iodo-phenyl)-2-(3-chloro-2-pyridyl) pyrazole-3-carboxamide]",≤ 1
11,"NC(=O)c1cc(Br)cc(Cl)c1NC(=O)c1cc(Cn2ncc(C(F)(F)F)n2)nn1-c1ncccc1Cl [Compound P37, N-(4-bromo-2-carbamoyl-6-chloro-phenyl)-2-(3-chloro-2-pyridyl)-5-[[4-(trifluoromethyl)triazol-2-yl]methyl]pyrazole-3-carboxamide]",≤ 1
12,"Cc1cc(C#N)cc(C(N)=O)c1NC(=O)c1cc(C(F)F)nn1-c1ncccc1Cl [Compound P28, N-(2-carbamoyl-4-cyano-6-methyl-phenyl)-2-(3-chloro-2-pyridyl)-5-(difluoromethyl)pyrazole-3-carboxamide]",≤ 1
13,"Cc1cc(Cl)cc(C(N)=O)c1NC(=O)c1cc(CC#N)nn1-c1ncccc1Cl [Compound P70, N-(2-carbamoyl-4-chloro-6-methyl-phenyl)-2-(3-chloro-2-pyridyl)-5-(cyanomethyl)pyrazole-3-carboxamide]",≤ 1
14,"NC(=O)c1cc(I)cc(Cl)c1NC(=O)c1cc(Br)nn1-c1ncccc1Cl [Compound P61, 5-bromo-N-(2-carbamoyl-6-chloro-4-iodo-phenyl)-2-(3-chloro-2-pyridyl) pyrazole-3-carboxamide]",≤ 1
15,"Cc1cc(Cl)cc(C(N)=O)c1NC(=O)c1cc(Cn2nnc(C3CC3)n2)nn1-c1ncccc1Cl [Compound P2, N-(2-carbamoyl-4-chloro-6-methyl-phenyl)-2-(3-chloro-2-pyridyl)-5-[(5-cyclopropyltetrazol-2-yl)methyl]pyrazole-3-carboxamide]",≤ 1
16,"Cc1cc(C#N)cc(C(N)=O)c1NC(=O)c1cc(OCC(F)(F)F)nn1-c1ncccc1Cl [Compound P32, N-(2-carbamoyl-4-cyano-6-methyl-phenyl)-2-(3-chloro-2-pyridyl)-5-(2,2,2-trifluoroethoxy)pyrazole-3-carboxamide]",≤ 1
17,"COc1cc(C(=O)Nc2c(C)cc(I)cc2C(N)=O)n(-c2ncccc2Cl)n1 [Compound P10, N-(2-carbamoyl-4-iodo-6-methyl-phenyl)-2-(3-chloro-2-pyridyl)-5-methoxy-pyrazole-3-carboxamide]",≤ 1
18,"Cc1cc(Cl)cc(C(N)=O)c1NC(=O)c1cc(Cn2nnc(-c3cc(Br)ccc3F)n2)nn1-c1ncccc1Cl [Compound P89, 5-[[5-(5-bromo-2-fluoro-phenyl)tetrazol-2-yl]methyl]-N-(2-carbamoyl-4-chloro-6-methyl-phenyl)-2-(3-chloro-2-pyridyl) pyrazole-3-carboxamide]",≤ 1
19,"NC(=O)c1cc(Cl)cc(Cl)c1NC(=O)c1cc(Br)nn1-c1ncccc1Cl [Compound P71, 5-bromo-N-(2-carbamoyl-4,6-dichloro-phenyl)-2-(3-chloro-2-pyridyl)pyrazole-3-carboxamide]",≤ 1
20,"Cc1cc(I)cc(C(N)=O)c1NC(=O)c1cc(Br)nn1-c1ncccc1Cl [Compound P63, 5-bromo-N-(2-carbamoyl-4-iodo-6-methyl-phenyl)-2-(3-chloro-2-pyridyl) pyrazole-3-carboxamide]",≤ 1
21,"Cc1cc(Br)cc(C(N)=O)c1NC(=O)c1cc(C(F)(F)F)nn1-c1ncccc1Cl [Compound P26, N-(4-bromo-2-carbamoyl-6-methyl-phenyl)-2-(3-chloro-2-pyridyl)-5-(trifluoromethyl)pyrazole-3-carboxamide]",≤ 1
22,"COc1ccc(-c2nnn(Cc3cc(C(=O)Nc4c(C)cc(Cl)cc4C(N)=O)n(-c4ncccc4Cl)n3)n2)cc1 [Compound P83, N-(2-carbamoyl-4-chloro-6-methyl-phenyl)-2-(3-chloro-2-pyridyl)-5-[[5-(4-methoxyphenyl)tetrazol-2-yl]methyl]pyrazole-3-carboxamide]",≤ 1
